Measured values published in the supplement of paper PMC12823440, “Inhibitors supercharge kinase turnover through native proteolytic circuits” (Nature, 2025).
The list shows a part of the results. The calls rarely recur for the same compound in another form.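 Kinases, fused to nanoluciferase, were expressed in K562 cells; luminescence was measured every 4 h from 2 to 18 h as percent of control (DMSO = 100%, positive control = 0%). A time point is decreased if signal falls significantly (2 sigma). Hits were called by the authors by a rule that is not shown; the count of time points alone does not decide it.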

Chains of the proteins cited; added tags and fusions are not shown. Lines headed by an entry give the natural chain unless they say otherwise; changes in a name come on top.
UniProt Q9UM73: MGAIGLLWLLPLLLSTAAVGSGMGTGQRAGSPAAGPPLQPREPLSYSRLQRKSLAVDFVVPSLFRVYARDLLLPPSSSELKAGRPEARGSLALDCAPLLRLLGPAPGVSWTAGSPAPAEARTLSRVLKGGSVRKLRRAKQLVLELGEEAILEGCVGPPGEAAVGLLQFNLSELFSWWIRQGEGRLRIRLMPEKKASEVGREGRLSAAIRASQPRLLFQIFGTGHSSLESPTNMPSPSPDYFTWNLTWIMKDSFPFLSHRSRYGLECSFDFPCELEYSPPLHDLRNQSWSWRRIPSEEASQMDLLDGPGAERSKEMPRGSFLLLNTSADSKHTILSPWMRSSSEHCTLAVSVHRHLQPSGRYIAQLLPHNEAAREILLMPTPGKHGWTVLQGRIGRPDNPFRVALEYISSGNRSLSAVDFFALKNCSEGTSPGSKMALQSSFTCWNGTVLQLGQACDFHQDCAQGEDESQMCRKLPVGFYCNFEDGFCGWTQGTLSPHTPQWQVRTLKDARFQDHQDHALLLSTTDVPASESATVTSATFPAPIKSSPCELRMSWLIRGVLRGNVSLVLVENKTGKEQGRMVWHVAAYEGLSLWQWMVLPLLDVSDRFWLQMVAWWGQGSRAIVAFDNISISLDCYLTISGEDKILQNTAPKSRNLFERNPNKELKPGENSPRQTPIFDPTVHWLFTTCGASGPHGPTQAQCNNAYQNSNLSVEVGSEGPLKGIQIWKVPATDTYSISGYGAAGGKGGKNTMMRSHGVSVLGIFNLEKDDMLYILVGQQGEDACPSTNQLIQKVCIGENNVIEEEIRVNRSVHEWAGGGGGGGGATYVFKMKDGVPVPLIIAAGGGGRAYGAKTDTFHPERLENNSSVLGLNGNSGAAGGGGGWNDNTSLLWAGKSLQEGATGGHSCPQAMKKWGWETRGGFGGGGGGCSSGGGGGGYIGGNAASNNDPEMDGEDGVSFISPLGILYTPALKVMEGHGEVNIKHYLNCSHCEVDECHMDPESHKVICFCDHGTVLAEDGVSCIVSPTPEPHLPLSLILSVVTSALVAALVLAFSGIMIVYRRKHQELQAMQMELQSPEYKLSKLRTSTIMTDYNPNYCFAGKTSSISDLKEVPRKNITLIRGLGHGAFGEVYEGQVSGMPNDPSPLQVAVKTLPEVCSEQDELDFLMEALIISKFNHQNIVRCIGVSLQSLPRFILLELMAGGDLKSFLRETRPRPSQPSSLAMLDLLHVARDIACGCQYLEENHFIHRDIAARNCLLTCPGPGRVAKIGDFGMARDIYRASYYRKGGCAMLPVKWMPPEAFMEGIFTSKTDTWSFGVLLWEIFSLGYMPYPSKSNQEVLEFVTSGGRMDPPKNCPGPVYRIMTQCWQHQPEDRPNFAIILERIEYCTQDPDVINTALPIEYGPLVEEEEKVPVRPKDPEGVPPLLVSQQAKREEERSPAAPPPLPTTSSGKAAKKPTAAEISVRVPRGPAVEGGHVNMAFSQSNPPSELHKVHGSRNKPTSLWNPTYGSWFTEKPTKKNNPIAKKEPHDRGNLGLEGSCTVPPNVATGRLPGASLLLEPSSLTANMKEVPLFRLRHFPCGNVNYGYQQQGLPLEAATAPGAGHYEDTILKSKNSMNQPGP
UniProt P10398: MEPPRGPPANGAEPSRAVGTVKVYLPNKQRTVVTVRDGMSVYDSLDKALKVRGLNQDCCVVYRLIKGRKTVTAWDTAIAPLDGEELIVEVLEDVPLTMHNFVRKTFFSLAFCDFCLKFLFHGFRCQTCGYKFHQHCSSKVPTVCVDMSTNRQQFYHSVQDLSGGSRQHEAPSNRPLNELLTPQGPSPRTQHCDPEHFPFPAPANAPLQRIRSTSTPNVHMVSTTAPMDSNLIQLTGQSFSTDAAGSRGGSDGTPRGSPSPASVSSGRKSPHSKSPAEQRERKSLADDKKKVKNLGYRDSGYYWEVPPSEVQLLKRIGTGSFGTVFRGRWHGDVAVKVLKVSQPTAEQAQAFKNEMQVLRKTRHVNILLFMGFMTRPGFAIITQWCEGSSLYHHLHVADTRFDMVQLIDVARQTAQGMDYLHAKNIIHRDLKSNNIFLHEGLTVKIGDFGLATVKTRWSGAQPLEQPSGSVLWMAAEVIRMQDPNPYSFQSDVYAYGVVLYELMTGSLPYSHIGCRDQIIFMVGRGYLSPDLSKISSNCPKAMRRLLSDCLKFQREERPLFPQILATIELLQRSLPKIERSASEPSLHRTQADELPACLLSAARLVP
UniProt O14965: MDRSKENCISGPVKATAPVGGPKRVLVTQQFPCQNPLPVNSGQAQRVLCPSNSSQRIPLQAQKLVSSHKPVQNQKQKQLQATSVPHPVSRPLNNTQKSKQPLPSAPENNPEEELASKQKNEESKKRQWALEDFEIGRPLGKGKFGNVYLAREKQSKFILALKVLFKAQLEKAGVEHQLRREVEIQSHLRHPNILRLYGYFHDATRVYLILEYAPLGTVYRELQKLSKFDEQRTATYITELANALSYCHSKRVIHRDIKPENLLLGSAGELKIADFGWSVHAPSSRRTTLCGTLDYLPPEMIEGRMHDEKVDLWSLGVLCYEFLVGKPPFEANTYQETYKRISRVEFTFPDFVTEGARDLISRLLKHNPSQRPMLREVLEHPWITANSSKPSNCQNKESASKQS
UniProt Q96GD4, whole entry: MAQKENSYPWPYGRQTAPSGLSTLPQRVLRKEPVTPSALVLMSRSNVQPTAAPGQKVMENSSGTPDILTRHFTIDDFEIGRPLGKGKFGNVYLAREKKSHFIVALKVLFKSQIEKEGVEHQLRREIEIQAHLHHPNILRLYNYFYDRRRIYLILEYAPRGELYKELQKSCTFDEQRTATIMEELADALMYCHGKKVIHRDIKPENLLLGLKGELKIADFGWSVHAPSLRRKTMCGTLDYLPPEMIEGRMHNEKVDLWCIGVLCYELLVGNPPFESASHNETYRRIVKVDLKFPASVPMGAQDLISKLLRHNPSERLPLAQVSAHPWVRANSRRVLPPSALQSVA
UniProt Q9UQB9: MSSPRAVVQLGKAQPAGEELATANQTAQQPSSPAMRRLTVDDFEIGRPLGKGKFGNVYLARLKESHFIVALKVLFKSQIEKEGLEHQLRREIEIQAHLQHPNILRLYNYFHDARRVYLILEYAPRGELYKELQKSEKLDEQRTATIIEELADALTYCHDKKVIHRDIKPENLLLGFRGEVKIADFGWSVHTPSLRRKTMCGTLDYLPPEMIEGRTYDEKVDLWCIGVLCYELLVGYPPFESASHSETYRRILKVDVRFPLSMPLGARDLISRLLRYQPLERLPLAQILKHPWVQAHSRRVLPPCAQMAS
UniProt P51451: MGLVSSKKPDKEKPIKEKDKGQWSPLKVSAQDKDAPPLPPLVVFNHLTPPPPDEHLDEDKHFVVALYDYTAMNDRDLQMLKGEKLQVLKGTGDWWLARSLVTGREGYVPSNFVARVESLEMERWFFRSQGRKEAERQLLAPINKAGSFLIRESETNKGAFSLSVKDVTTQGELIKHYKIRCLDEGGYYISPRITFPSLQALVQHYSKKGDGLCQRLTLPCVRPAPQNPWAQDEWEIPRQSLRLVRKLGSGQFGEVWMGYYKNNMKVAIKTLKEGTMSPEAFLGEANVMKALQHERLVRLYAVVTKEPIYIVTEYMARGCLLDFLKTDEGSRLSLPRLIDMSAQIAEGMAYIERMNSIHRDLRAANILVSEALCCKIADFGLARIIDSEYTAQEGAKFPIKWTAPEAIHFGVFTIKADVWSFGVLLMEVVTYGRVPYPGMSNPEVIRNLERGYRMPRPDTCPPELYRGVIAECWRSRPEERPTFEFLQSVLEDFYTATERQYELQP
UniProt P51813: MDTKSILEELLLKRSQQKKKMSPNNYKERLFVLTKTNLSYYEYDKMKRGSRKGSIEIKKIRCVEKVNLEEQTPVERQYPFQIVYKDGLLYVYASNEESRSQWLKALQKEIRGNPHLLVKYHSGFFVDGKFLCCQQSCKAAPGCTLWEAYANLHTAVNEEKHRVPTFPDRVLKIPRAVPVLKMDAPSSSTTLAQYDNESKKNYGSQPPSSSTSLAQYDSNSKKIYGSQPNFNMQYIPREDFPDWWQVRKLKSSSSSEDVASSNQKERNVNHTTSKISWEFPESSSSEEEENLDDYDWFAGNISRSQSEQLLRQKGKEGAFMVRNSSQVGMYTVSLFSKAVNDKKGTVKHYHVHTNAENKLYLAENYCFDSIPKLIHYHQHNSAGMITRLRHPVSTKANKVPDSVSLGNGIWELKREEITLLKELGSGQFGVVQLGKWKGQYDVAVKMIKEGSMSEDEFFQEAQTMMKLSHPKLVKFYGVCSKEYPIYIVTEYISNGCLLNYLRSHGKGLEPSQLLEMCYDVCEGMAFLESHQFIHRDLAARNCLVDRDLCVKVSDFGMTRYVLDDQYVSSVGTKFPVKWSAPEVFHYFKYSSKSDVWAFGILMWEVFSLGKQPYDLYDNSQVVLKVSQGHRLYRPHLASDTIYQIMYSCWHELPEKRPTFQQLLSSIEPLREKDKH
UniProt P15056, whole entry, looked up: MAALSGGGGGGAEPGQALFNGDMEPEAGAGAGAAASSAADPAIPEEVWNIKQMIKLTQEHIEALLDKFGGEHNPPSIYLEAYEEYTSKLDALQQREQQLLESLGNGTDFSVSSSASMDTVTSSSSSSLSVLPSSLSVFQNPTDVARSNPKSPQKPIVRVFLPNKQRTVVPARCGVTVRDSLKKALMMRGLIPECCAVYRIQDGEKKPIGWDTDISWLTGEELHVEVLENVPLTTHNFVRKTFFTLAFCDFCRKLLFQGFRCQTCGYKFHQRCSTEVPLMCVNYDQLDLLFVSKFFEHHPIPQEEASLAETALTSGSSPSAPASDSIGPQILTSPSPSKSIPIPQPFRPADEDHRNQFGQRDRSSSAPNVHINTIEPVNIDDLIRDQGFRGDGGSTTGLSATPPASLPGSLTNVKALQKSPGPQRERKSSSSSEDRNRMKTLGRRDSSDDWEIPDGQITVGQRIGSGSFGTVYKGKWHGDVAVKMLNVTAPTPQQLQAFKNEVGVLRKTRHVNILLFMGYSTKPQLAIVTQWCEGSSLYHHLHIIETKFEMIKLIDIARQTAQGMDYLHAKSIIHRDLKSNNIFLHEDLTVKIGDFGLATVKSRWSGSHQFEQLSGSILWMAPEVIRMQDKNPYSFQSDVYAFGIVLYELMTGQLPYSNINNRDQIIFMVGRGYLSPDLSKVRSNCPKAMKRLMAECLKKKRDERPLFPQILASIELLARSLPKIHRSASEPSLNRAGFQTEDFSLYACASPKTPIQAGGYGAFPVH
UniProt Q06187: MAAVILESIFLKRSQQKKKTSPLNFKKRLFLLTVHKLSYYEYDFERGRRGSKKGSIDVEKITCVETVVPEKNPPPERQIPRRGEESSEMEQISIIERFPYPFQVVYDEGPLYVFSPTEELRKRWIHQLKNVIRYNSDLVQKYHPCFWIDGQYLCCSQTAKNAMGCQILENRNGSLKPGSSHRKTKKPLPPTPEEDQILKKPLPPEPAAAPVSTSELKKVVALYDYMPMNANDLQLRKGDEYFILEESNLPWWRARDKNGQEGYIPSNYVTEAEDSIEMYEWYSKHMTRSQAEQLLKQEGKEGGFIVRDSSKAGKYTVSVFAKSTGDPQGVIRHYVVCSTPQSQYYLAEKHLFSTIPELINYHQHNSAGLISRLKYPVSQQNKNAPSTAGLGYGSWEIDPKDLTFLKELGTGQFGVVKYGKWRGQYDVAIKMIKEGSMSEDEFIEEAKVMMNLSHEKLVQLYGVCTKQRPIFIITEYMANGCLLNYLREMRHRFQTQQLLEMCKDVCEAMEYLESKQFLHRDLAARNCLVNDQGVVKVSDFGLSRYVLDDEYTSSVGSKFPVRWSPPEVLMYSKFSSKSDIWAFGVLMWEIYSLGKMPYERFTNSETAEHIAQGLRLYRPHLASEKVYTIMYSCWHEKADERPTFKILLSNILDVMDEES

Tests used:
Assay in all cases: number of time points (of 5) at which kinase-Nluc abundance scored as decreased, DMSO-normalised (count); higher = more persistent destabilization
Conditions in all cases: K562; 2-18 h
ALK = ALK (UniProt Q9UM73)
ARAF = ARAF (UniProt P10398)
AURKA = AURKA (UniProt O14965)
AURKB = AURKB (UniProt Q96GD4)
AURKC = AURKC (UniProt Q9UQB9)
BLK = BLK (UniProt P51451)
BMX = BMX (UniProt P51813)
BRAF = BRAF (UniProt P15056)
BRAF_V600E = system: BRAF_V600E
BTK = BTK (UniProt Q06187)

| SMILES | number of time points (ALK) | number of time points (ARAF) | number of time points (AURKA) | number of time points (AURKB) | number of time points (AURKC) | number of time points (BLK) | number of time points (BMX) | number of time points (BRAF) | number of time points (BRAF_V600E) | number of time points (BTK) |
| --- | --- | --- | --- | --- | --- | --- | --- | --- | --- | --- |
| Cc1ccc(-n2c(-c3ccc(O)cc3O)n[nH]c2=O)cc1 (10 µM) | 1 | 0 | 0 | 0 | 0 | 4 | 2 | 0 | 4 | 0 |
| COc1ncc2cc(C(=O)Nc3cc(C(=O)NCc4cccc(Cl)c4)ccc3Cl)c(=O)[nH]c2n1 (2.5 µM) | 0 | 0 | 0 | 0 | 0 | 0 | 0 | 0 | 0 | 0 |
| Cc1cc(/C=C2\CC/C(=C\c3cc(C)c(O)c(C)c3)C2=O)cc(C)c1O [Pentagamavunon-1] (2.5 µM) | 1 | 0 | 0 | 0 | 0 | 0 | 0 | 0 | 0 | 0 |
| CC[C@H](C)[C@@H]1NC(=O)[C@@H]2CCCN2C(=O)[C@@H]2CCCN2C(=O)[C@@H]2CCCN2C(=O)[C@H](CC(C)C)NC(=O)CNC(=O)CNC(=O)[C@H](Cc2ccccc2)NC1=O [Heterophyllin B] (10 µM) | 0 | 0 | 0 | 0 | 0 | 0 | 0 | 0 | 0 | 0 |
| CC(C)(C)NS(=O)(=O)c1cncc(-c2cc(F)c3nc(N)nn3c2)c1 (10 µM) | 0 | 0 | 0 | 0 | 0 | 0 | 0 | 0 | 0 | 0 |
| C[C@@H]1O[C@@H](O[C@H]2[C@H](OC(=O)[C@]34CCC(C)(C)C[C@H]3C3=CC[C@@H]5[C@@]6(C)C[C@H](O)[C@H](O[C@@H]7O[C@H](CO)[C@@H](O)[C@H](O)[C@H]7O)C(CO)(CO)[C@@H]6CC[C@@]5(C)[C@]3(C)C[C@H]4O)OC[C@H](O)[C@@H]2O)[C@H](O)[C@H](O)[C@H]1O[C@@H]1OC[C@@H](O)[C@H](O[C@@H]2OC[C@](O)(CO)[C@H]2O)[C@H]1O [Platycodin D] (10 µM) | 0 | 0 | 1 | 0 | 0 | 0 | 0 | 0 | 0 | 0 |
| Cc1cccc(-c2[nH]c(C(C)(C)C)nc2-c2ccc3c(c2)OCO3)n1 (2.5 µM) | 0 | 0 | 0 | 0 | 0 | 0 | 0 | 0 | 0 | 0 |
| CC(C)[C@H](CO)Nc1nc(Nc2ccc(C(=O)O)c(Cl)c2)c2ncn(C(C)C)c2n1 [Purvalanol B] (10 µM) | 0 | 0 | 0 | 0 | 0 | 0 | 0 | 0 | 0 | 0 |
| C[C@@H]1CN(Cc2cn[nH]c2-c2ccc(C#N)cc2)CCN1c1ccc(C(F)(F)F)cn1 (2.5 µM) | 0 | 0 | 0 | 0 | 0 | 0 | 0 | 0 | 0 | 0 |
| Cn1cc(-c2ccc3nnc(Sc4ccc5nn(C)cc5c4)n3n2)cn1 [c-Met inhibitor 1] (10 µM) | 0 | 0 | 0 | 0 | 0 | 0 | 0 | 0 | 0 | 0 |
| COc1ccc2c(c1)C[C@H](C(=O)Nc1ccc(-c3cn[nH]c3)cc1OCCN(C)C)CO2 [Chroman 1] (10 µM) | 0 | 0 | 0 | 0 | 0 | 0 | 0 | 0 | 0 | 0 |

At a glance, two of the compounds above:

| SMILES | number of time points (ALK) | number of time points (ARAF) | number of time points (AURKA) | number of time points (AURKB) | number of time points (AURKC) | number of time points (BLK) | number of time points (BMX) | number of time points (BRAF) | number of time points (BRAF_V600E) | number of time points (BTK) |
| --- | --- | --- | --- | --- | --- | --- | --- | --- | --- | --- |
| CC(C)[C@H](CO)Nc1nc(Nc2ccc(C(=O)O)c(Cl)c2)c2ncn(C(C)C)c2n1 [Purvalanol B] (10 µM) | 0 | 0 | 0 | 0 | 0 | 0 | 0 | 0 | 0 | 0 |
| C[C@@H]1CN(Cc2cn[nH]c2-c2ccc(C#N)cc2)CCN1c1ccc(C(F)(F)F)cn1 (2.5 µM) | 0 | 0 | 0 | 0 | 0 | 0 | 0 | 0 | 0 | 0 |
